Source: publication PMC1308830
No constants are given. Whether binding was seen depends on the method and setting. Some results given as binding are weak or reduced against the parent protein; the word gives no strength.

Protein sequences, listed by entry. Tags and fused reporters are not part of them. Residues count along the entry.
UniProt Q63369, residues 1-483: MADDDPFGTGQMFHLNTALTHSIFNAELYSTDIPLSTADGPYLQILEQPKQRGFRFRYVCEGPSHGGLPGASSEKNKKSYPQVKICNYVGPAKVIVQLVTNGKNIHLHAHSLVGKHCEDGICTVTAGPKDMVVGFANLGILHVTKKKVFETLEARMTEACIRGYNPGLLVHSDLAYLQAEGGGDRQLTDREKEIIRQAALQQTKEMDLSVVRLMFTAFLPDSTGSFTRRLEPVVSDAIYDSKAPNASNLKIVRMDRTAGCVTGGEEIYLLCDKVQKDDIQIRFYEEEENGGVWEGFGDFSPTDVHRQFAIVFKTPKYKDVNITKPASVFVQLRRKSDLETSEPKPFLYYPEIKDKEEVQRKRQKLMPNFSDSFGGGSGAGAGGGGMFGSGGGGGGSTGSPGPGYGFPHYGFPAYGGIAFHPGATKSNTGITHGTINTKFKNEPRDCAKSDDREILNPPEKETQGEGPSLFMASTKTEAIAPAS
UniProt Q7TQN4: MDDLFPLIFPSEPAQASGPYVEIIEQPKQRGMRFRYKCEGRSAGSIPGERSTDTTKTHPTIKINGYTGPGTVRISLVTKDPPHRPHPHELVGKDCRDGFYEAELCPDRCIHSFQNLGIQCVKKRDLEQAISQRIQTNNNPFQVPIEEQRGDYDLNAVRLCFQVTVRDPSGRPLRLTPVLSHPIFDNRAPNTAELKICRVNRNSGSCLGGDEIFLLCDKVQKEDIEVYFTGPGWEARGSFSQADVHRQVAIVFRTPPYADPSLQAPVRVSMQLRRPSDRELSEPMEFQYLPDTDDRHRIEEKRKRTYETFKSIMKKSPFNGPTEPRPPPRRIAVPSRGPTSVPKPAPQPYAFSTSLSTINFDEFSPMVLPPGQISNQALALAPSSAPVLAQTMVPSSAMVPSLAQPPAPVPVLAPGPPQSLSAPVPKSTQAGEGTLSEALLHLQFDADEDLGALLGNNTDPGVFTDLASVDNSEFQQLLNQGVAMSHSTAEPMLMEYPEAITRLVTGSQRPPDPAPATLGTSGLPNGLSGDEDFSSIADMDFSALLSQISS

Experiments:
[1] = target: NF-κB p50 (rat (endogenous in primary hepatic stellate cells)) (UniProt Q63369); test: native gel or EMSA; supershift: pre-assembled gel shift complexes of 8 μg nuclear extract of CCN2-treated rat HSC with 32P-labelled NF-κB oligonucleotide, incubated with 2 μg rabbit polyclonal anti-p65 and/or anti-p50 IgG for 2 h at 4°C, 8% polyacrylamide gel; the dimers are seen bound to DNA
[2] = target: NF-κB p65 (rat (endogenous in primary hepatic stellate cells)) (UniProt Q7TQN4); test: as above

Substance	binding [1]	binding [2]
NF-κB p50 (from UniProt Q63369 1-483)	binds	binds
NF-κB p65 (from UniProt Q7TQN4 1-550)		binds
